Measured values as given in publication PMC11476177.
For at least one entry, the source does not settle the construct or the ends of the probe.

Amino acid sequences for entries named in this document (tags omitted). A change or cut given only in a name is not applied to a line headed by its entry.
UniProt Q04206: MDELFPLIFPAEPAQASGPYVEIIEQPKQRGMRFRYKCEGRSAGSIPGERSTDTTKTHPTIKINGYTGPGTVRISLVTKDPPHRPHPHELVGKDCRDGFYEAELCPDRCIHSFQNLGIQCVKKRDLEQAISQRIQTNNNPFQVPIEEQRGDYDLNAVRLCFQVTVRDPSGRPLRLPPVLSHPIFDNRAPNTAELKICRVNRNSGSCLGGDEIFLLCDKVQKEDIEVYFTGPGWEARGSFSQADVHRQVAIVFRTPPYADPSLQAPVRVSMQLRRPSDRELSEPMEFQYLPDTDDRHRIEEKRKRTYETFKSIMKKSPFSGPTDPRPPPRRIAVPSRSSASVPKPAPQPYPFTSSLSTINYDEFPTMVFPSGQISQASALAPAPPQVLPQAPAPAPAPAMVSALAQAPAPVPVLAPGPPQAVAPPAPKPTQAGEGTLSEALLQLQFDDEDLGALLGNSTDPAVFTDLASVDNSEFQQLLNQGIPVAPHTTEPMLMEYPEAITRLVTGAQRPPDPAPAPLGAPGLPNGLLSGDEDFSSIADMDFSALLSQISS

Biological target: His-p65 (UniProt Q04206)
Assay: EMSA
Settings: 100 nM p65, displaced from the probe by rising TonEBP sNT (100-500 nM); EMSA: 10 mM Tris-HCl pH 7.5, 10 mM NaCl, 40 mM KCl, 1 mM MgCl2, 1 mM EDTA, 1 mM DTT, 50 ug/mL BSA, 100 nM probe, 25 min room temp, 0.8% agarose; recombinant protein; protein details: N-terminal His; label: Cy5.5

“ATAGGAAAACTGAAAGGGAGAAGTGAAAGTGGGAAATTCC (double strand) [Probe IRF3/p65 (Cy5.5)]”: binds.
